Source: PubChem BioAssay AID1347075 (National Center for Advancing Translational Sciences (NCATS), 2019)
Hit rate of the full screen: of about 400,000 compounds, about 5,500 (1.4%) were called active. Inconclusive means that the source gave no clear call. Such entries were picked first, then a sample of the others. Calls follow the shape of the dose curve; as a rule, active = well fitted cell-killing curve with a large enough effect; inconclusive = small, poorly fitted or top-dose-only effect, or effect the other way; inactive = flat fitted curve, though single readings scatter. Potencies of inconclusive entries are doubtful fits and often do not repeat.

test: qHTS assay for MDR1-selective chemotherapeutics: Primary screen using the parental adenocarcinoma cell KB-3-1; details: KB-3-1 viability, CellTiter-Glo ATP luminescence, 72 h; activity change, negative = cytotoxic: at 46.1 µM (top of the series); also: nearly all actives have a fitted effect of over 60% in size
Outline: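 Cytotoxicity in the drug-sensitive parental line KB-3-1 was scored as loss of CellTiter-Glo luminescence following 72 h incubation with compound. Values come from curve fitting of normalized concentration-response data.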
% is scaled to controls: 0 for no effect and ±100 for the full control effect; potency is read from the fitted curve at half-maximal effect.

SMILES | Potency | activity change, negative = cytotoxic
CCCOc1ccc(C(=O)C(CN2CCCC2)c2ccccc2)cc1 (stereo not drawn) | active: 23.1 µM | –
COc1ccc2c3n(nc2c1)CCN=C3c1cc(Cl)c(N)c(Cl)c1 | inconclusive: 29.1 µM [cytotoxic, single point] | –
Cc1ccc(NC(=O)CN2C(=O)S/C(=C\c3cc(Cl)c(OCC(=O)O)c(Cl)c3)C2=O)cc1 | – | inactive: 3.12%
O=C(NNC(=O)c1cc(Cl)ccc1O)c1cccc(S(=O)(=O)N2CCOCC2)c1 | inconclusive: 29.1 µM [cytotoxic, single point] | –
COc1cc(-c2nn3c(-c4ccccc4)nnc3s2)cc(OC)c1OC | inconclusive: 2.31 µM [rising, full curve, poor fit] | –
O=C(Nc1cccc(S(=O)(=O)c2cccc(NC(=O)c3ccco3)c2)c1)c1ccco1 | – | inactive: -22.9%
COc1ccc(NC(=S)N2CCC3CC2c2c(Cl)cccc23)c(OC)c1 (stereo not drawn) | inconclusive: 20.6 µM [cytotoxic, partial curve, poor fit] | –
O=C1c2[nH]nc(-c3ccccc3O)c2C(c2ccc(F)cc2)N1Cc1ccco1 (stereo not drawn) | inconclusive: 23.1 µM [cytotoxic, single point] | –
C[C@@H]1ON(C)[C@H]2C[C@H]3c4[nH]c5ccc(-c6ccc7c(c6)OCO7)cc5c4CCN3C[C@@H]12 | inconclusive: 25.9 µM [cytotoxic, single point] | –
CC(=O)c1cn(CC(=O)Nc2ccccc2)c2ccccc12 | inconclusive: 7.31 µM [cytotoxic, partial curve, poor fit] | –
O=C(NN=Cc1ccccc1O)NN=Cc1ccccc1O | active: 14.6 µM | –
O=C(O)c1cccc(Nc2nc(-c3cccnc3)nc3ccccc23)c1 | inconclusive: 11.6 µM [rising, partial curve, poor fit] | –
COc1ccc(CSc2nc3ccccc3[nH]2)cc1 | inconclusive: 18.4 µM [cytotoxic, partial curve, poor fit] | –
O=C(C[n+]1cc(-c2ccc(F)cc2)n2c1CCC2)Nc1nc(-c2ccc(F)cc2)cs1 | inconclusive: 7.31 µM [cytotoxic, partial curve, poor fit] | –
CCCCC(=O)Nc1ccc(C(=O)OCc2cc(=O)n3nc(C4CC4)sc3n2)cc1 | – | inactive: -4.37%
COc1ccccc1CNC(=O)COC(=O)CCN1C(=O)C2CC=CCC2C1=O (stereo not drawn) | – | inactive: -5.38%
O=C1CSC(c2cccc([N+](=O)[O-])c2)N1CCN1CCCCC1 (stereo not drawn) | – | inconclusive: 2.21%
CC(C(=O)Nc1ccccc1C(F)(F)F)n1nc(-c2ccccc2)c2c(c1=O)CCCC2 (stereo not drawn) | inconclusive: 3.26 µM [cytotoxic, partial curve, poor fit] | –

In the list so far, two contain a COOH group.
SMILES | Potency | activity change, negative = cytotoxic
Cc1ccc(NC(=O)CN2C(=O)S/C(=C\c3cc(Cl)c(OCC(=O)O)c(Cl)c3)C2=O)cc1 | – | inactive: 3.12%
O=C(O)c1cccc(Nc2nc(-c3cccnc3)nc3ccccc23)c1 | inconclusive: 11.6 µM [rising, partial curve, poor fit] | –
